According to paper PMC5087665:

What was measured:
[1] = biological target: T1, GST–RP2 (retinitis pigmentosa 2) (UniProt O75695); assay: pull-down; Fig. 6C: HEK293T lysates expressing Myc–Rab8-wt, -QL or -TN with bead-immobilized GST–RP2, GST–RP2-C86Y, P95L or GST; blotted for Myc–Rab8 and endogenous TNPO1; only the target purified
T1 sequence: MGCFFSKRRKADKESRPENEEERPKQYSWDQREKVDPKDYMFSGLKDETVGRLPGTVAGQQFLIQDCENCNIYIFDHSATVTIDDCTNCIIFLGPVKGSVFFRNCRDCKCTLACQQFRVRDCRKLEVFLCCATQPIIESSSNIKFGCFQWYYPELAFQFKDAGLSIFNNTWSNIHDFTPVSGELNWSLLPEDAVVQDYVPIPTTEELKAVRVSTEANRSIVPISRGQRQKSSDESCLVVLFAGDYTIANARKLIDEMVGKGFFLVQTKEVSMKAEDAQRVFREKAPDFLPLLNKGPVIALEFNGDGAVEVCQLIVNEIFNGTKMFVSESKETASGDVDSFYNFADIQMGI

[2] = biological target: T1, GST–RP2 (retinitis pigmentosa 2); assay: pull-down; Fig. 6B: HEK293T lysates co-expressing GFP–TNPO1 and Myc–Rab8-wt, -QL or -TN with bead-immobilized GST–f-CTS, GST–rhodopsin-CTS, GST–RP2 or GST; blotted for Myc–Rab8 and GFP–TNPO1; only the target purified

binding [1]: binds | binding [2]: binds
Substance: Myc–Rab8-TN (GDP-locked mutant) (enzyme)

No constants are given. Whether binding was seen depends on the method and setting. Binding seen in cells or lysates may run through a third protein. Binding calls can cover weak binding; strength is not graded here. Sequences can lack the tags named with a protein.
